Legend:
Test in all cases: filter binding
[1] = biological target: plasminogen activator inhibitor I (UniProt P05121); conditions: specificity, label: 32P
thrombin = conditions: specificity, label: 32P
[2] = test system: VEGF165 (recombinant human vascular endothelial growth factor, 165 aa form) (Homo sapiens); conditions: purified recombinant protein; protein details: gift from N. Ferrara, Genentech; single-stranded DNA; variant of ssDNA 23

Sequence: GGAAGCUUGAUGGGUGACACACGUCAUGCCGAGCU [ligand 44t]
- Kd ([1]; variant of ligand 44): > 10 µM
- Kd (thrombin; variant of ligand 44): > 10 µM

Sequence: GGGCATCTAACCCAGACCTACCGGAACGTTATCGCTTGTG [23t]
- Kd [2]: > 0.2 µM

Sequence: GGCCGGUAGUCGCAUGGCCCAUCGCGCCCGG [ligand 100t]
- Kd ([1]; variant of ligand 100): > 10 µM
- Kd (thrombin; variant of ligand 100): > 10 µM

From patent US5811533
